Test results from patent US9737502B2, “Calebin A for hepatic steatosis” (SAMI LABS LIMITED, priority 2011, dated 2017).

Test: Study I: HFD-fed mice, diet supplementation 12 weeks; body weight, food intake, relative organ weights

COc1cc(/C=C/C(=O)COC(=O)/C=C/c2ccc(O)c(OC)c2)ccc1O [Calebin A]
Food intake (HFD + 0.25% Calebin A): 3.57 ± 0.47 g/mouse/day | Food intake (HFD + 1% Calebin A): 3.57 ± 0.40 g/mouse/day
